Reference: PubChem BioAssay AID1508597 (Cure First, 2020)
Screen: 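Knock-downs altering ovarian cancer cell survival with or without PARP inhibitor rucaparib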 (primary screen). Cells: human ovarian carcinoma lines grown from tumours: OCI-P5x (papillary serous) and OCI-C5x (clear cell). Reagents: siRNA pool against human genes, 1.25 pmol siRNA per well. Time to read-out: 72 h or 96 h, depending on the cell culture. Treatment: rucaparib 20 µM (about IC30) or vehicle, present until read-out. Rucaparib or vehicle: Vehicle. Cell line: OCI-C5x (clear cell). Measured: 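Luminescent ATP-based viability assay read 72 or 96 h after transfection, depending on culture, given as normalised percent viability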. Direction: viability, normalised: higher = more viable cells remaining. Hit rule: 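Active when normalised viability falls below 80 percent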. Meaning of the calls: active = viability under 80%; inactive = viability 80% or more.
Shown is a random part of the about 2,100 reagents, in one setting of the screen. 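Calls flag viability under 80% in either arm, not effects specific to rucaparib; the reference for percent is not stated.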 A reagent listed more than once was tested more than once; the source does not tell the runs apart. Not given: the 100% reference.

Gene	technical replicate	viability, normalised (%)	activity call
FRMPD4 (GeneID 9758)	1	50.2	active
FRMPD4 (GeneID 9758)	2	56.9	active
FRMPD4 (GeneID 9758)	3	62.4	active
DAP3 (GeneID 7818)	1	53.9	active
DAP3 (GeneID 7818)	2	53.2	active
DAP3 (GeneID 7818)	3	40.5	active
AK9 (GeneID 221264)	1	68.7	active
AK9 (GeneID 221264)	2	48.6	active
AK9 (GeneID 221264)	3	54.6	active
HJURP (GeneID 55355)	1	54.3	active
HJURP (GeneID 55355)	2	47.6	active
HJURP (GeneID 55355)	3	58.7	active
FANCL (GeneID 55120)	1	47.8	active
FANCL (GeneID 55120)	2	57.5	active
FANCL (GeneID 55120)	3	35.9	active
MAP4K2 (GeneID 5871)	1	65.6	active
MAP4K2 (GeneID 5871)	2	71.2	active
MAP4K2 (GeneID 5871)	3	61.2	active
MYOD1 (GeneID 4654)	1	45.2	active
MYOD1 (GeneID 4654)	2	32.3	active
MYOD1 (GeneID 4654)	3	41	active
PHKA1 (GeneID 5255)	1	88	inactive
PHKA1 (GeneID 5255)	2	61.1	active
PHKA1 (GeneID 5255)	3	59.9	active
SIK2 (GeneID 23235)	1	39.5	active
SIK2 (GeneID 23235)	2	38.6	active
SIK2 (GeneID 23235)	3	36.7	active
DPYD (GeneID 1806)	1	41.8	active
DPYD (GeneID 1806)	2	44.2	active
DPYD (GeneID 1806)	3	48.8	active
PHF6 (GeneID 84295)	1	60.7	active
PHF6 (GeneID 84295)	2	37.1	active
PHF6 (GeneID 84295)	3	36.7	active
SETD3 (GeneID 84193)	1	44.5	active
SETD3 (GeneID 84193)	2	37.4	active
SETD3 (GeneID 84193)	3	39.2	active
ARID1A (GeneID 8289)	1	57.4	active
ARID1A (GeneID 8289)	2	46.2	active
ARID1A (GeneID 8289)	3	49.9	active
SMAD3 (GeneID 4088)	1	37.9	active
SMAD3 (GeneID 4088)	2	47.4	active
SMAD3 (GeneID 4088)	3	37.3	active
SMPD1 (GeneID 6609)	1	54	active
SMPD1 (GeneID 6609)	2	47.9	active
SMPD1 (GeneID 6609)	3	47.6	active
TET2 (GeneID 54790)	1	42	active
TET2 (GeneID 54790)	2	41.9	active
TET2 (GeneID 54790)	3	46.3	active
STK11 (GeneID 6794)	1	45.4	active
STK11 (GeneID 6794)	2	40.5	active
STK11 (GeneID 6794)	3	43.6	active
SUPT6H (GeneID 6830)	1	20.5	active
SUPT6H (GeneID 6830)	2	37	active
SUPT6H (GeneID 6830)	3	27.1	active
CHAF1B (GeneID 8208)	1	42.4	active
CHAF1B (GeneID 8208)	1	44.8	active
CHAF1B (GeneID 8208)	2	37.5	active
CHAF1B (GeneID 8208)	2	68.1	active
CHAF1B (GeneID 8208)	3	47.3	active
CHAF1B (GeneID 8208)	3	47.6	active
